No constants are given. Whether binding was seen depends on the method and setting. In cells and extracts the contact can be indirect. Some results given as binding are weak or reduced against the parent protein; the word gives no strength.
Assays:
[1] = target: Procollagen-lysine, 2-oxoglutarate 5-dioxygenase (PLOD3) (human (endogenous in R-H460)) (UniProt O60568); assay: co-IP; R-H460 cells transfected 48 h, lysed in NP-40 buffer (50 mM Tris-HCl pH 8, 150 mM NaCl, 1% NP-40); antibodies 1:100 at 4 °C, protein A-sepharose, immunoblotting
[2] = target: Procollagen-lysine, 2-oxoglutarate 5-dioxygenase (PLOD3) (human (endogenous in R-H460)) (UniProt O60568); assay: proximity ligation; in situ PLA (Duolink) on paraformaldehyde-fixed R-H460 cells permeabilised with 0.2% Triton X-100; mouse anti-PLOD3 with rabbit anti-STAT3 (pS-STAT3 and pY-STAT3 staining by the legend); confocal microscopy

Protein sequences, listed by entry. Tags and fused reporters are not part of them. Residues count along the entry.
UniProt O60568, residues 25-738: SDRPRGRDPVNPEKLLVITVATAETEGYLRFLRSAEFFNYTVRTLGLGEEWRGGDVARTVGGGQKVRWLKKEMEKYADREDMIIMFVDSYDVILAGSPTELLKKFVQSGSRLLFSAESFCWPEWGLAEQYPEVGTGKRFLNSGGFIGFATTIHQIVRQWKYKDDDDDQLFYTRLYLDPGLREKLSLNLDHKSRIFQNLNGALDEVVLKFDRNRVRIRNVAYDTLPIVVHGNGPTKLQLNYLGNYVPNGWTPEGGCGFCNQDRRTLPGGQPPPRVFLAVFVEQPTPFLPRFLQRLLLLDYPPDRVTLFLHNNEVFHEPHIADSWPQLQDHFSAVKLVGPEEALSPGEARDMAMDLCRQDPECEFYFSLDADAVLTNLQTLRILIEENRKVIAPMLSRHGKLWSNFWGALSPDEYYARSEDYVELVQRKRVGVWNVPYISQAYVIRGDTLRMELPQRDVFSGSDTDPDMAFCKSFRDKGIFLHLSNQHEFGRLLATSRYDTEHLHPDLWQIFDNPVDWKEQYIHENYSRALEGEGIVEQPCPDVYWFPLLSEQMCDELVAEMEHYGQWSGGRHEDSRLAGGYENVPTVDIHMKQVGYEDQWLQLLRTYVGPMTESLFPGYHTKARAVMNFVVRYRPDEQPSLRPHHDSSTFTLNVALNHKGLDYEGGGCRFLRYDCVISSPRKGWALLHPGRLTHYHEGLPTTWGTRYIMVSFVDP
UniProt P40763: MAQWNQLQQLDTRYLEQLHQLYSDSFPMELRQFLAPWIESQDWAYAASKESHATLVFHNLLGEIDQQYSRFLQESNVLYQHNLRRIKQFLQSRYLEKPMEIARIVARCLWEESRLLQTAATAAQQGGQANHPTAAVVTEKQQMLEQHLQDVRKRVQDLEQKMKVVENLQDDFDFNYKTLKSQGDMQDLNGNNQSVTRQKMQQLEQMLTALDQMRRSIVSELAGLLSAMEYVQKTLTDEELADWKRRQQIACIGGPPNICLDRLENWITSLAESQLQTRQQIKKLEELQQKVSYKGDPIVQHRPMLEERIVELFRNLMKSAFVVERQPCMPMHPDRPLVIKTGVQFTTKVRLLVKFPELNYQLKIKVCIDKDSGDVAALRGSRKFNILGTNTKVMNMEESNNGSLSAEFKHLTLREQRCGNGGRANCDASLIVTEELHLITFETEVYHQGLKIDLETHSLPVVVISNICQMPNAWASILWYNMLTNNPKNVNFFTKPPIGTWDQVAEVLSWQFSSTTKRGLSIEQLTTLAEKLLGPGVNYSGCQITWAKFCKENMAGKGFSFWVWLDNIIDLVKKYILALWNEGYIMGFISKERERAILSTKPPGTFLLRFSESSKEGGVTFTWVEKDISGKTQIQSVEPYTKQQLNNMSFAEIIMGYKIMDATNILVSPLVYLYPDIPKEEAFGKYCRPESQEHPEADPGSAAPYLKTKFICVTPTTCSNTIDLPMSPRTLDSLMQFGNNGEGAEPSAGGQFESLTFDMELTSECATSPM

Row | binding [1] | binding [2] | Substance
1 | binds | binds | Signal transducer and activator of transcription 3 (STAT3) (from UniProt P40763 1-770)
2 |  | binds | STAT3 phosphorylated at Ser727 (pS-STAT3) (from UniProt P40763 1-770)
